From paper doi:10.1101/414367
These are yes or no findings as the source states them, for the method shown. Binding seen in cells or lysates may run through a third protein. Here binding means that the protein was enriched with, or labelled near, the bait; the list need not be complete. Sequences can lack the tags named with a protein.

Protein sequences, listed by entry. Tags and fused reporters are not part of them.
UniProt Q02455: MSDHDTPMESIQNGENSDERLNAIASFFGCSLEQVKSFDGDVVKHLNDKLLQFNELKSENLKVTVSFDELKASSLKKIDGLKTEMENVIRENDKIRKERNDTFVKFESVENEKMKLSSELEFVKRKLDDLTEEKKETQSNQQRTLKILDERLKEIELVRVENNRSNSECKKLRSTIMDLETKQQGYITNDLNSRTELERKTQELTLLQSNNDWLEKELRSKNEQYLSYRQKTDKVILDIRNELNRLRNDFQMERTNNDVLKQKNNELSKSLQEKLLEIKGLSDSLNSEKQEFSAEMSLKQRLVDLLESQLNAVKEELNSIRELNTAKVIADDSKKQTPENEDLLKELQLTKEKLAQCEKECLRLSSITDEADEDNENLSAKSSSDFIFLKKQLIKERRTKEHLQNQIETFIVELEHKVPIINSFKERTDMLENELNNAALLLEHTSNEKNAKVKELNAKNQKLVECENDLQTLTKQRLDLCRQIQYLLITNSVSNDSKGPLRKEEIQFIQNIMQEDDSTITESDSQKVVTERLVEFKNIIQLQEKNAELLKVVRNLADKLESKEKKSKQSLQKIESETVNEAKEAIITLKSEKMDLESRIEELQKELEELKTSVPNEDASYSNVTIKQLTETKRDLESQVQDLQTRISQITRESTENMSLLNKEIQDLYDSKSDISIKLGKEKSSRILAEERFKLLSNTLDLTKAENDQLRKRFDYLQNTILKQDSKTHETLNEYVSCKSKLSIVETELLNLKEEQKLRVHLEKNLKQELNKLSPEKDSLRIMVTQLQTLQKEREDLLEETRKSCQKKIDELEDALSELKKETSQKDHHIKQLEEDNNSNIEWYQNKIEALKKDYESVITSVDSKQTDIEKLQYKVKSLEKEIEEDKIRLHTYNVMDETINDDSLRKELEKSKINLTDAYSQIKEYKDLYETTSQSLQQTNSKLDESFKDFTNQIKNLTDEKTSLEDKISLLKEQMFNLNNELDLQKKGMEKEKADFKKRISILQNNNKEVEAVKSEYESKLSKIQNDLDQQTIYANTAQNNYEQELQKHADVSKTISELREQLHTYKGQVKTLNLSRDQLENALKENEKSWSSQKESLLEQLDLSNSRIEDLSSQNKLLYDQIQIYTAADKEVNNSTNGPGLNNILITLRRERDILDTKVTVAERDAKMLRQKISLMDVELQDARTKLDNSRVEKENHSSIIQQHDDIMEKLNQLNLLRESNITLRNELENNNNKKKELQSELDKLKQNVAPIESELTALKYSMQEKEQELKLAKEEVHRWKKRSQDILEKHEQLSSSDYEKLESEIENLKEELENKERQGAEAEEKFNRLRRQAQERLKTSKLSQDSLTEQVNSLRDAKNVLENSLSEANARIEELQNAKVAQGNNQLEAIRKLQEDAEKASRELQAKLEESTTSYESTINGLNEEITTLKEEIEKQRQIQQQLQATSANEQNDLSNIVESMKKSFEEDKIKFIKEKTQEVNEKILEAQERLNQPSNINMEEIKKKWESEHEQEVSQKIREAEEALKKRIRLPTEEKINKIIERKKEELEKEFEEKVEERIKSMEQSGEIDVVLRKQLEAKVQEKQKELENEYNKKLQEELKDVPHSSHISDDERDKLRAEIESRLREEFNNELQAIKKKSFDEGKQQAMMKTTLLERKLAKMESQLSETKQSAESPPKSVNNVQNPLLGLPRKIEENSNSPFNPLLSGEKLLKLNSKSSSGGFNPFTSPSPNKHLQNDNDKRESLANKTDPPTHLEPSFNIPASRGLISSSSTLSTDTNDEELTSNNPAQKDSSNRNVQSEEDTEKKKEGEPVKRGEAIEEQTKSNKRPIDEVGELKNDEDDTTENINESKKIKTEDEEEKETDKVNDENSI

B1: Sec21 (protein, UniProt P32074 1-935)
chain: MSAHTYKKFENSTSGDLPDKMTIYQDCMNTFNESPVNSKRCRLLISRLLRLLAQGETFPQNEATALFFSISKLFQHQNDPLRQAVYLAIKELSGISEDVLMATSSIMKDVQNGSDLIKPDAIRSLTYVLDESTAFSAERLLKSAVVSRHPSISSAALCTSYHLLPISEVTIRRFTNETQEAVLDLKQFPNQHGNSEYYPNSTYISQYHALGLLYQLKKTDKMALLKLVRHFSENNSMKNQLAKVELVKIVNDLIYRDPQLFSQFRPLLSDWLSNKFESVQLETAKLITSFATRNSRLVAPELYAAAISALQSLLTVPRVSSRFAALRILNRISMVSPEKIVVCNPELESLINDSNRNISTYAITTLLKTGTSKNISSLISTITNFIHDVSDDFKIIIIDAVRTLSLNFPQEWKSILNFLIDVLKNSEGGFKFKNSIVEALIDIVSFVPQSKELALENLCDFIEDCEFNEILVRILHLLGKEGPSAPNPSLYVRHIYNRVVLENSIIRSAAVVALSKFALTKNDPTLYESIISLLKRIANDKDDEVRDRATIALEFIDSARNKDDVIAQNLIESKYFYDIPSLESKLSSYISSNTDSFATAFDVNQVRKFTEDEMKAINLKRKQEQIFNQKSETTLDTTPEAESVPEKRADANSFAGPNLDDHQEDLLATKYADELLSIEQIKPFGQLVNSSRAISLTEPEAEFVVRGVKHLFKDNVVLQFNITNTLTDIALDNVSVVCTPEISDEAELEELFTLQVDRLLPSEEAACYVAFKKLDEIVMEGFLNNLTFTTKEINPDTNEPFDGDEGFQDEYEIDSIFLNAGDYVKSSFTGNFSATFDELPCEEVAVFNIQEDLSIQEVVDKIILNSSCLPVESTQFAPSDSNSHTLKLFGKSALTGSKVALQIKMIKSSKGLALKVHGKGEDSLLCSDLVNGLMQ
B2: Bat2 (protein, UniProt P47176 1-376)
chain: MTLAPLDASKVKITTTQHASKPKPNSELVFGKSFTDHMLTAEWTAEKGWGTPEIKPYQNLSLDPSAVVFHYAFELFEGMKAYRTVDNKITMFRPDMNMKRMNKSAQRICLPTFDPEELITLIGKLIQQDKCLVPEGKGYSLYIRPTLIGTTAGLGVSTPDRALLYVICCPVGPYYKTGFKAVRLEATDYATRAWPGGCGDKKLGANYAPCVLPQLQAASRGYQQNLWLFGPNNNITEVGTMNAFFVFKDSKTGKKELVTAPLDGTILEGVTRDSILNLAKERLEPSEWTISERYFTIGEVTERSKNGELLEAFGSGTAAIVSPIKEIGWKGEQINIPLLPGEQTGPLAKEVAQWINGIQYGETEHGNWSRVVTDLN
B3: Tps1 (protein, UniProt Q00764 1-495)
chain: MTTDNAKAQLTSSSGGNIIVVSNRLPVTITKNSSTGQYEYAMSSGGLVTALEGLKKTYTFKWFGWPGLEIPDDEKDQVRKDLLEKFNAVPIFLSDEIADLHYNGFSNSILWPLFHYHPGEINFDENAWLAYNEANQTFTNEIAKTMNHNDLIWVHDYHLMLVPEMLRVKIHEKQLQNVKVGWFLHTPFPSSEIYRILPVRQEILKGVLSCDLVGFHTYDYARHFLSSVQRVLNVNTLPNGVEYQGRFVNVGAFPIGIDVDKFTDGLKKESVQKRIQQLKETFKGCKIIVGVDRLDYIKGVPQKLHAMEVFLNEHPEWRGKVVLVQVAVPSRGDVEEYQYLRSVVNELVGRINGQFGTVEFVPIHFMHKSIPFEELISLYAVSDVCLVSSTRDGMNLVSYEYIACQEEKKGSLILSEFTGAAQSLNGAIIVNPWNTDDLSDAINEALTLPDVKKEVNWEKLYKYISKYTSAFWGENFVHELYSTSSSSTSSSATKN
B4: Spc42 (protein, UniProt P36094 1-363)
chain: MNGSPTPKRYSSKSSRLYDDYYNIPYQYSNPTPMNRDYNDVGSRINADKLVPEEYKRNTEFINKAVQQNKELNFKLREKQNEIFELKKIAETLRSKLEKYVDITKKLEDQNLNLQIKISDLEKKLSDANSTFKEMRFPKVKDPMVDDDPVSENYDQINVPKHRAPDATGNPRTTNKVSNTSDQDSRLKAIERTLSVLTNYVMRSEDGNNDRMSPLPSPLNTILPINNRLNFQEPKRYNPTVKVNPSDDDIMMYESAELKRVEEEIEELKRKILVRKKHDLRKLSLNNQLQELQSMMDGDDNIKLDNVSKHNHATHRHSSQSSRDYSPSSDACLECSNDLYEKNRVKPENNMSETFATPTPNNR
B5: Spc110 (protein, UniProt P32380 1-944)
chain: MDEASHLPNGSLKNMEFTPVGFIKSKRNTTQTQVVSPTKVPNANNGDENEGPVKKRQRRSIDDTIDSTRLFSEASQFDDSFPEIKANIPPSPRSGNVDKSRKRNLIDDLKKDVPMSQPLKEQEVREHQMKKERFDRALESKLLGKRHITYANSDISNKELYINEIKSLKHEIKELRKEKNDTLNNYDTLEEETDDLKNRLQALEKELDAKNKIVNSRKVDDHSGCIEEREQMERKLAELERKLKTVKDQVLELENNSDVQSLKLRSKEDELKNLMNELNELKSNAEEKDTQLEFKKNELRKRTNELNELKIKSDEMDLQLKQKQNESKRLKDELNELETKFSENGSQSSAKENELKMLKNKIAELEEEISTKNSQLIAKEGKLASLMAQLTQLESKLNQRDSQLGSREEELKKTNDKLQKDIRIAREETVSKDERIIDLQKKVKQLENDLFVIKKTHSESKTITDNELESKDKLIKILENDLKVAQEKYSKMEKELKEREFNYKISESKLEDEKTTLNEKISNLAAENSQLKNKIEDNSTATHHMKENYEKQLESLRKDIEEYKESAKDSEDKIEELKIRIAENSAKVSEKRSKDIKQKDEQISDLTQNLKLQEDEISSLKSIIDRYKKDFNQLKSEQSNIQHDLNLQILNLENKLIESEDELKSLRDSQKIEIENWKRKYNNLSLENDRLLTEKESASDKEREISILNRKLDEMDKEKWNLQESKEKYKRELQKVITANDRLRREKEELNENSNNIRIMEDKMTRIKKNYLSEITSLQEENRRLEERLILNERRKDNDSTMQLNDIISYYKLKYHSEVRHNNDLKVINDYLNKVLALGTRRLRLDTRKGEHSLNISLPDDDELDRDYYNSHVYTRYHDYEYPLRFNLNRRGPYFERRLSFKTVALLVLACVRMKRIAFYRRSDDNRLRILRDRIESSSGRISW
B6: Mps2 (protein, UniProt P53159 1-387)
chain: MSNGAFDAIFEYAWGQIDKPISGDFIYGKDLPKLIEIIENIFQKAQKSGSYELRLPLFSEINKDLFRTFSNTKTFFKIHKEEFDDIFFNLVNHPLREILENAFIGVDSIPSDFIVSMNLNSPSKFLVENKNKNTEGAGISTPRKKLTESPIKLLSRNNIGKALEVQVEELKRELTAKQSLLQENERQVSELKIRLETYQEKYASIQQRFSDLQKARQVEDNQNSSRTSDPGSPLVTGIDQKAILEEFRRRLQRQTDTISFLKDQIRRERGLNCSNDKVSHSKRKHATTDGDGTFKNFISAVPSNIWVKATIRIIVCFALLAGVLPYIRKYVYAHDTPSQNSRLQLSWWENSGILSKIVWFFEDQTDLETEYRSNANVDDAYSRVFGI
B7: Cnm67 (protein, UniProt P53865 1-581)
chain: MTDFDLMNFPFHERLDSPVSENGEIKDGEPIPQNWLNENHVGKSILPLFVNPEDVINCNFSNARDSYEENKSPSMDQMNYARNTSYQESPGLQERPKNEKDKSPIGTDVHKKDVPNFIHSTPRENSSKHFTRANEQASAQPTDEHTSPDISIEDCNGAKIFLQNSLSKEDFRMLENVILGYQKKVIELGRDNLRQEERANSLQKELEAATKSNDKTLDNKKKIEEQTVLIENLTKDLSLNKEMLEKANDTIQTKHTALLSLTDSLRKAELFEIPIGILFFDLYDSEENSSKLDHILQEKYPNIKGFLCASQQEELSRISQRFKNAKAEAEDLRNELENKKIEIQTMREKNNTLIGTNKTLSKQNKILCDKFDKLTIDEKEILKGCNEEIKIKLERLNERLGSWEKSKEKYETSLKDKEKMLADAEKKTNTLSKELDNLRSRFGNLEGNTSERITIKNILQSRPDISAEECNFLMVEQIDSANLTTLQNTVKEIVLAVGIPYPKLRRKIPLLAIKLKYENIMLSNFAQRLHRQVYSQEMNLKKFTDQAYYDFMSTRRMDSIDHHLERCLDHLYDHILEKMVK
B8: Sec26 (protein, UniProt P41810 1-973)
chain: MTSLSSQPAYTLVFDPSPSMETYSSTDFQKALEKGSDEQKIDTMKSILVTMLEGNPMPELLMHIIRFVMPSKNKELKKLLYFYWEIVPKLAEDGKLRHEMILVCNAIQHDLQHPNEYIRGNTLRFLTKLREAELLEQMVPSVLACLEYRHAYVRKYAILAVFSIFKVSEHLLPDAKEIINSFIVAETDPICKRNAFIGLAELDRENALHYLENNIADIENLDPLLQAVFVQFIRQDANRTPALKAQYIELLMELLSTTTSDEVIFETALALTVLSANPNVLVPAVNKLIDLAVKVSDNNIKLIVLDRIQDINANNVGALEELTLDILRVLNAEDLDVRSKALDISMDLATSRNAEDVVQLLKKELQTTVNNPDQDKAMQYRQLLIKTIRTVAVNFVEMAASVVSLLLDFIGDLNSVAASGIIAFIKEVIEKYPQLRANILENMVQTLDKVRSAKAYRGALWIMGEYAEGESEIQHCWKHIRNSVGEVPILQSEIKKLTQNQEHTEENEVDATAKPTGPVILPDGTYATESAFDVKTSQKSVTDEERDSRPPIRRFVLSGDFYTAAILANTIIKLVLKFENVSKNKTVINALKAEALLILVSIVRVGQSSLVEKKIDEDSLERVMTSISILLDEVNPEEKKEEVKLLEVAFLDTTKSSFKRQIEIAKKNKHKRALKDSCKNIEPIDTPISFRQFAGVDSTNVQKDSIEEDLQLAMKGDAIHATSSSSISKLKKIVPLCGFSDPVYAEACITNNQFDVVLDVLLVNQTKETLKNLHVQFATLGDLKIIDTPQKTNVIPHGFHKFTVTVKVSSADTGVIFGNIIYDGAHGEDARYVILNDVHVDIMDYIKPATADDEHFRTMWNAFEWENKISVKSQLPTLHAYLRELVKGTNMGILTPSESLGEDDCRFLSCNLYAKSSFGEDALANLCIEKDSKTNDVIGYVRIRSKGQGLALSLGDRVALIAKKTNKLALTHV

Target: T1, Cex1-HA (S. cerevisiae) (UniProt Q12453)
T1 sequence: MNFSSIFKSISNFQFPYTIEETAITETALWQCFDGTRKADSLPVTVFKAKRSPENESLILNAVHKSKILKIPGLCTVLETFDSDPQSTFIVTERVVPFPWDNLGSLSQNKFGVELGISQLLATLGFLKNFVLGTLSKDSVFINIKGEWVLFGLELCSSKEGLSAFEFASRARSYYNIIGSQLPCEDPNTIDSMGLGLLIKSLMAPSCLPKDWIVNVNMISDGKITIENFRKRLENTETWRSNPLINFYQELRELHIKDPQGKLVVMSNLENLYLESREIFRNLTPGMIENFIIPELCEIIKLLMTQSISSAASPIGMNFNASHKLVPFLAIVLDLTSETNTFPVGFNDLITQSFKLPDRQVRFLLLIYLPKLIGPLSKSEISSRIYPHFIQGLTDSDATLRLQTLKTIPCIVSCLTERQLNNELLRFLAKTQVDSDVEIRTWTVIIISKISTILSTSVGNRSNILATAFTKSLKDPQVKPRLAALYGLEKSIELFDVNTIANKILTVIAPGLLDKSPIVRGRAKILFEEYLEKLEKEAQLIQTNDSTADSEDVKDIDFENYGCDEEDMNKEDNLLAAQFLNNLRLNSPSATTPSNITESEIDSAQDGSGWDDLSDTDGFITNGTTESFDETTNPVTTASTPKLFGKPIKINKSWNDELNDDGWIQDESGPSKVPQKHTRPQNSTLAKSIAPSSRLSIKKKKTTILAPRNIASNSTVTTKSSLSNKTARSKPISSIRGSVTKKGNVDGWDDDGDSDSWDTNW
Assay: affinity purification with mass spectrometry

binding, binds:
Mlp1 (from UniProt Q02455 1-1875)
Epo1
B1
B2
B3
B4
B5
B6
B7
B8
